Experimental data reported in article PMC9899276.
No constants are given. Whether binding was seen depends on the method and setting. In cells and extracts the contact can be indirect. Here binding means that the protein was enriched with, or labelled near, the bait; the list need not be complete.

Molecular target: STING-TurboID (human), Q86WV6
Test: proximity labelling; 293T stably expressing STING-TurboID (WT or 5KR), cGAMP in permeabilisation buffer for the indicated times (up to 6 h), 500 µM biotin 30 min prior to harvest; RIPA lysate, streptavidin magnetic beads, immunoblot of the labelled proteins; also done with 0.5 µM MLN7243 and in UBE2N KO cells
Details: remark: other sources report otherwise

B1: VPS37A, Q8NEZ2 1-397 (protein)
chain: MSWLFPLTKSASSSAAGSPGGLTSLQQQKQRLIESLRNSHSSIAEIQKDVEYRLPFTINNLTININILLPPQFPQEKPVISVYPPIRHHLMDKQGVYVTSPLVNNFTMHSDLGKIIQSLLDEFWKNPPVLAPTSTAFPYLYSNPSGMSPYASQGFPFLPPYPPQEANRSITSLSVADTVSSSTTSHTTAKPAAPSFGVLSNLPLPIPTVDASIPTSQNGFGYKMPDVPDAFPELSELSVSQLTDMNEQEEVLLEQFLTLPQLKQIITDKDDLVKSIEELARKNLLLEPSLEAKRQTVLDKYELLTQMKSTFEKKMQRQHELSESCSASALQARLKVAAHEAEEESDNIAEDFLEGKMEIDDFLSSFMEKRTICHCRRAKEEKLQQAIAMHSQFHAPL
B1 was tested, and the binding was “binds”.
